Measurements from patent US20040259787A1.
These are yes or no findings as the source states them, for the method shown. Some binding calls cover weakened binding; strength is not graded here.

Molecular target: recombinant CUB-domain of human cC1qR/CRT, thioredoxin fusion protein (human)
Assay: competitive inhibition of radiolabelled CUB-domain binding to immobilised C1q

binding: binds
B1: CL43 (ligand, UniProt P42916 21-321, looked up)
chain: EEMDVYSEKTLTDPCTLVVCAPPADSLRGHDGRDGKEGPQGEKGDPGPPGMPGPAGREGPSGRQGSMGPPGTPGPKGEPGPEGGVGAPGMPGSPGPAGLKGERGTPGPGGAIGPQGPSGAMGPPGLKGDRGDPGEKGARGETSVLEVDTLRQRMRNLEGEVQRLQNIVTQYRKAVLFPDGQAVGEKIFKTAGAVKSYSDAEQLCREAKGQLASPRSSAENEAVTQLVRAKNKHAYLSMNDISKEGKFTYPTGGSLDYSNWAPGEPNNRAKDEGPENCLEIYSDGNWNDIECREERLVICEF
